Measurements as given in paper PMC6943441 (Molecules, 2019).
The same purity stands for every peptide and may come from a single statement. HELM strings list residues between dots; [ac] is acetyl, [am] amide, other brackets name non-standard units. Square brackets hold non-standard residues; d marks the D form. 2Pal = N[C@@H](Cc1ccccn1)C(=O)O; 3Pal = N[C@@H](Cc1cccnc1)C(=O)O; 4Pal = N[C@@H](Cc1ccncc1)C(=O)O

Experiment: general procedure: Fmoc solid-phase peptide synthesis; Fmoc-Leu-Wang resin; N,N'-diisopropylcarbodiimide / Oxyma
Conditions: whole synthesis; for final HPLC purity: UV area % from UPLC (Waters Acquity, PDA 200-400 nm, HSS T3 C18)

## H-YGG[4Pal]L-OH (N-terminus and C-terminus assumed; SMILES CC(C)C[C@H](NC(=O)[C@H](Cc1ccncc1)NC(=O)CNC(=O)CNC(=O)[C@@H](N)Cc1ccc(O)cc1)C(=O)O)
  isolated mass: 36.1 mg
  isolated yield: 32.4%
  final HPLC purity: ≥95%

## PEPTIDE1{Y.G.G.[mFh34c308].L}$$$$V2.0
  isolated mass: 60.5 mg
  isolated yield: 47.6%
  final HPLC purity: ≥95%

## H-YGG[2Pal]L-OH (N-terminus and C-terminus assumed; SMILES CC(C)C[C@H](NC(=O)[C@H](Cc1ccccn1)NC(=O)CNC(=O)CNC(=O)[C@@H](N)Cc1ccc(O)cc1)C(=O)O)
  isolated mass: 12.1 mg
  isolated yield: 10.8%
  final HPLC purity: ≥95%

## PEPTIDE1{Y.G.G.[mFh78ff5e].L}$$$$V2.0
  isolated mass: 26.0 mg
  isolated yield: 22.3%
  final HPLC purity: ≥95%

## H-YGG[3Pal]L-OH (N-terminus and C-terminus assumed; SMILES CC(C)C[C@H](NC(=O)[C@H](Cc1cccnc1)NC(=O)CNC(=O)CNC(=O)[C@@H](N)Cc1ccc(O)cc1)C(=O)O)
  isolated mass: 70.0 mg
  isolated yield: 62.9%
  final HPLC purity: ≥95%

## PEPTIDE1{Y.G.G.[mFh83ed55].L}$$$$V2.0
  isolated mass: 75.0 mg
  isolated yield: 55.2%
  final HPLC purity: ≥95%

## PEPTIDE1{Y.G.G.[mFh1fa75b].L}$$$$V2.0
  isolated mass: 60.2 mg
  isolated yield: 50.9%
  final HPLC purity: ≥95%

## PEPTIDE1{Y.G.G.[mFhc39cab].L}$$$$V2.0
  isolated mass: 90.2 mg
  isolated yield: 78.9%
  final HPLC purity: ≥95%

## PEPTIDE1{Y.G.G.[mFh2adb45].L}$$$$V2.0
  isolated mass: 80.3 mg
  isolated yield: 66.7%
  final HPLC purity: ≥95%

## PEPTIDE1{Y.G.G.[mFh5d7437].L}$$$$V2.0
  isolated mass: 60.0 mg
  isolated yield: 52.6%
  final HPLC purity: ≥95%

## PEPTIDE1{Y.G.G.[mFhefdbcf].L}$$$$V2.0
  isolated mass: 40.1 mg
  isolated yield: 32.1%
  final HPLC purity: ≥95%

## PEPTIDE1{Y.G.G.[mFhc275c1].L}$$$$V2.0
  isolated mass: 50.0 mg
  isolated yield: 43.1%
  final HPLC purity: ≥95%
